Reference: patent US12564589B2, “Methods for treating cancer, reducing side effects of cancer treatment, and preventing the recurrence of cancer” (Florida State University Research Foundation, Inc., priority 2024, dated 2026)

Tested on: patient derived H3.3K27M mutant DIPG cells
Assay: Cell survival assay in patient derived H3.3K27M mutant DIPG cells
Format: cell-based, human
Conditions: 75 nM for 7 days
Description: Patient derived glioblastoma cells carrying either wild type (WT) H3.3 or the H3.3 K27M mutant were either left untreated (UT) or treated with 75 nM Vorinostat (Vor) for 16 hours before harvesting them, acid extracting total histones and processing them for Western blotting using antibodies specific to the indicated acetylated (Ac) histones. Ponceau staining of the total histones is shown as a loading control. […] The indicated cells were either left untreated or treated with 75 nM of the FDA approved HDACi Vorinostat (Vor; trade name Zolinza) for 7 days before counting the surviving cells. The structure of Vor is also shown. […] The indicated cells were either left untreated or treated with a very low dose of Vor (10 nM) either with or without a low 1 Gy dose of radiation and surviving cells were counted one week later. […]
Except for the viability assays performed in FIGS. 1A-1G that were scored by flow cytometry using the violet fluorescent Live/Dead cell staining kit (Invitrogen) following the manufacturer's instructions, all the remaining viability assays were performed as following. […] The surviving cells were then counted on a Beckman Coulter particle and size analyzer, typically set to count all particles with a size greater than 8 μm (but was adjusted as needed based on cell size for different cell types). […]

`O=C(CCCCCCC(=O)Nc1ccccc1)NO` [Vorinostat] was tested, and the “killing of H3.3 K27M mutant DIPG cells” value was “specifically kills”.
